# Screening data

The results are deposited in PubChem (AID1159506; NCATS, 2015).

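Genome-wide siRNA knockdown in TC32 Ewing sarcoma cells, comparing luciferase light from an NR0B1-promoter reporter with a CMV-promoter reporter 48 hours after transfection.
Each siRNA was applied at 20 nM.
A z-score of the log NR0B1-over-CMV signal, less the median of siRNAs with the same seed; more negative means a stronger specific loss of the NR0B1 reporter.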

This is part of the screen; most of the strongest results are not listed here.
Sequences are the guide (antisense) strand, without overhang.

Sequence,gene,seed-corrected z-score
UCCACUGUCAGACCGCUCU,NUDT1,0.5694
UAGGUACCAAGGAUGUUUC,BRSK1,0.4563
UUGAUACCCAAAGCCGAAC,PLK3,0.1123
UCUGGUACCACUCUCGAUU,PDE4C,0.6243
UCAUGUACUGCUGCUUCUC,HMG20B,1.172
UUUCAUCAGCCGUUGGAGC,GPR146,-1.055
UUCUUAUCAGUAUUGGUAC,SLC9C2,0.1615
UGCCGGUGAAGAAACAGUG,ZDHHC22,-0.1042
UUAAGUUAAAAGACACUGG,GARS,-0.6479
UUGUUGUAGAGUAUGAUAC,LMAN2L,-0.2709
AAAGCAGACGGGAACCUGG,PITPNC1,-1.068
AUUCCAAUCUUUAAAGUAC,GTF2H2C_2,0.3434
UAUGGAUUAUACUUCACUC,TPH1,0.371
UCAUGGUAGAGAACAUAGG,AQP10,-1.115
AAUAUUAGAAUCACCCUUC,GPR174,-0.5563
UCUGCUCCCAGUGGGUUAG,ORMDL3,0.7946
UUAAUGGUAACAGUUCUAC,POLK,0.5867
UUAACCAAACCCUUCAAGC,PSMG1,-0.2203
GGCGGAAUCAAUCCUGAAG,CTAGE6,0.9451
UUGAGUGCAAGCUUAGUCC,HSPA2,-0.125
UUGUUGUCCACAAGAUAGG,PI4K2B,-0.1411
UUCCGGAACUUCAAUCUGC,SNX31,0.2921
UAUAGCUAUAAGGAACUGC,OR8U1,-0.4416
UAUUCUUACAUUUGCCUGG,PDLIM5,-1.168
UCUGUGACAGGCACAGCAG,PIDD1,0.01137
UGAUUUUAACUUGCCGUGG,CD84,0.5185
UUUCUUCCAGCUGAUUCUG,BAIAP2,-1.304
AUAAGGACCAGCGACUGUG,MSH5,1.478
UGUUAUCCGAGGAACAACG,UNCX,0.9897
UAUAAGGUGAAUGAAUUCA,DR1,0.8489
ACAGGAAAAGGAUAAUGCC,SLC38A3,-0.2348
UUUCGUUCAUCAUGCACAC,CRAMP1,0.3441
UACGUCUGAGGUAAUAGUC,HCAR1,-0.04666
UGACCUUUGACAGUAUCAC,ATF2,-0.8145
AACCGUAAUAACUUAAUCG,TOP2B,0.3421
UGAUCUCCCAGAACAUGGG,RAB3IL1,-0.163
UAAAGUUCACUUGUUGAGG,GMDS,0.3891
UUUGAAUCCACAGCAGUAG,PHF20,1.382
UUAGCGUGAUCCUUUCUCC,KCTD1,0.1597
UCCAGAAUUAGGUAGACUC,AURKA,1.066
AUAGGGAUCCUUCAGGAAC,DGAT1,0.1492
UCUAGUAUGAGGUAGACAG,ABT1,0.08526
AAAAGAAAGCGGACGAACU,P2RY4,0.02875
UCAAAGUCCAUCAUGAGGC,RBM47,-0.2408
UUCGAUUCGUUCUCUUUCC,PPM1D,0.6181
UACGCGCUGAGAGAUAGCC,MAB21L2,0.3589
UCUUUUGGUAGGGAGAUUC,LOC729856,-0.9296
UGUUCUUCAAGUCAUCGAC,ENDOU,-0.6258
UUUCCUCACACGGUCAUUC,DCLK3,-0.04208
AAUCGUUUGAGGUGCAGUC,USP44,-0.4792
AAGCUUUAUAUUCUGGACU,CLEC1A,-0.7079
AAAACUCUCACCUAGACUG,SNRPN,-0.5913
UUUGCUGCCGCUUUGGGUC,KLRC2,-0.0749
UGAUUUGAGAGUAAGAGCC,TET2,1.585
UUGUUAAUGAAGCACGUCC,ALDH9A1,0.628
UUUUCUUGGACUAAGGCAC,HRCT1,1.431
UUAUGUUAUACUGUUGUUG,LINC01242,0.1885
UAGAUACCAACGAAUCAUC,GRIA2,-0.1835
UUUCUAACUAGGAUAUCGC,CCDC82,-0.1291
AAACCGAUACUGAGCAUCC,CNBD2,1.06
UUGUUGUUUAUCCUGAUGC,BTG4,0.3748
UUCCUUAUUACCAUCCACC,CTPS2,-0.2437
UUGAGUACCCUUCUCCACG,SERPINA1,0.04211
AGCUGGUUAAUAAAGCUGU,LRRC8E,-1.576
UUUGUUUGCACUUGUUUGU,HMGN1P21,0.5774
UCGAGGAUGUCAGUGUUGG,MEF2BNB-MEF2B,0.04578
UCCAUAGUCAUAAUAUUCU,KHDRBS1,0.427
UUGCCUUCUCGGUAAGUCC,FAM20B,-0.4119

The first 7 entries again:

- UCCACUGUCAGACCGCUCU against NUDT1 | seed-corrected z-score 0.5694
- UAGGUACCAAGGAUGUUUC against BRSK1 | seed-corrected z-score 0.4563
- UUGAUACCCAAAGCCGAAC against PLK3 | seed-corrected z-score 0.1123
- UCUGGUACCACUCUCGAUU against PDE4C | seed-corrected z-score 0.6243
- UCAUGUACUGCUGCUUCUC against HMG20B | seed-corrected z-score 1.172
- UUUCAUCAGCCGUUGGAGC against GPR146 | seed-corrected z-score -1.055
- UUCUUAUCAGUAUUGGUAC against SLC9C2 | seed-corrected z-score 0.1615